Test results taken from patent publication US20190010493A1 (published 2019).

Target: HA-tagged full-length RSK2
Assay: co-immunoprecipitation in heterologous cells

B1: mAKAP RSK binding domain (RBD), mAKAP residues 1694 to 1833 (other, not shown: small tags and cut ends)
chain: ELSLCSEDIVLHKNKIPESNASFRKRLNRSVADESDVNVSMIVNVSCTSACTDDEDDSDLLSSSTLTLTEEELCLKDEDDDSSIATDDEIYEESNLMSGLDYIKNELQTWIRPKLSLTREKKRSGVTDEIKVNKDGGGNE
notes: also called mAKAP RBD
With B1 the binding was “no binding”.

Results are given in words; binding and its absence hold for the method and conditions named. In cells and extracts the contact can be indirect.
